{
  "source": "patent US20070276027A1",
  "about": "“Crystalline Forms of [R-(R* ,R*)]-2-(4-Fluorophenyl)-Beta, -Dihydroxy-5-(1-Methylethyl)-3-Phenyl-4-[(Phenylamino)Carbonyl]-1H-Pyrrole-1-Heptanoic Acid” (Warner-Lambert Company LLC, priority 2003, published 2007)",
  "details": "solvents including water and phosphate buffered saline solution; compared with Form I atorvastatin calcium (U.S. Pat. No. 5,969,156)",
  "data": [
    {"molecule": "CC(C)c1c(C(=O)Nc2ccccc2)c(-c2ccccc2)c(-c2ccc(F)cc2)n1CC[C@@H](O)C[C@@H](O)CC(=O)O", "note": "(relative stereo) [Form A, [R—(R*,R*)]-2-(4-Fluorophenyl)-β,δ-dihydroxy-5-(1-methylethyl)-3-phenyl-4-[(phenylamino)carbonyl]-1H-pyrrole-1-heptanoic acid]", "values": [
      {"measurement": "solubility", "value": "comparable to Form I atorvastatin calcium"}
    ]}
  ]
}
